Measurements taken from PubChem BioAssay AID540256 (National Center for Advancing Translational Sciences (NCATS), 2011).
About 3,700 (1.2%) of roughly 300,000 compounds were called active. Inconclusive means that the source gave no clear call. Such entries were picked first, then a sample of the others. Calls come from the whole dose curve; tested in HEK293 cells. Potencies of inconclusive entries are doubtful fits and often do not repeat.

assay: qHTS for Inhibitors of binding or entry into cells for Lassa Virus; conditions: Lassa virus pseudotype entry inhibition, cell reporter; series mostly up to 37.9 µM; note: nearly all actives have a fitted effect of over 50% in size
Potency is the fitted concentration of half-maximal effect.

| SMILES | Potency |
| --- | --- |
| Cc1ccc(C(=O)C[n+]2cccc(C(N)=O)c2)cc1 | inactive |
| Cc1cc(=O)[nH]c(N2CCN(c3ccc(Cl)cc3)CC2)n1 | inactive |
| CN(c1ccc(OCC(=O)Nc2ccc3[nH]c(=O)[nH]c3c2)cc1)S(=O)(=O)c1ccc(Cl)cc1 | active: 23.1 µM |
| Clc1cccc(CNc2ncnc3c2nc2n3CCCC2)c1 | inconclusive: 35.5 µM [inhibitor, single point] |
| Cc1ccccc1CSc1nnc(-c2ccccn2)n1C | inconclusive: 6.31 µM [inhibitor, single point] |
| COCCNC(=O)C1CCN(S(=O)(=O)c2ccc3c(c2)CCCN3C(C)=O)CC1 | inactive |
| Cc1cc(-c2csc(NC(=O)c3ccc(S(=O)(=O)N(C)C)cc3)n2)c(C)n1-c1ccccc1 | inconclusive: 7.94 µM [inhibitor, partial curve] |
| CC(Oc1ccc(Br)cc1)c1nc2c3ccccc3nc(=S)n2[nH]1 (stereo unspecified) | inconclusive: 28.2 µM [inhibitor, single point] |
| O=c1c2c3c(sc2nc2sc(CN4CCOCC4)cn12)CCCC3 | inactive |
| CC(=O)OCC#CCSc1nnc(-c2cccc(Br)c2)o1 | inactive |
| CCOC(=O)c1c(C)oc2nc(C)nc(NCC3CCN(Cc4ccc(Cl)cc4)CC3)c12 | inconclusive: 10 µM [activator, partial curve] |
| O=C(COC(=O)COc1ccccc1[N+](=O)[O-])Nc1ccc2c(c1)OCO2 | inactive |
| Nc1nnc(SCC(=O)Nc2ccc3c(c2)OCCO3)s1 | inconclusive: 2.06 µM [activator, full curve, poor fit] |
| COc1cccc2c1C(=O)c1c(O)c3c(c(O)c1C2=O)CC(O)(C(=O)CO)CC3OC1CC(N(C)C)C(O)C(C)O1 (stereo unspecified) | inconclusive: 1.41 µM [inhibitor, full curve, poor fit] |
| CCCN(CCC)S(=O)(=O)c1cc2c(cc1Br)CCN2C(=O)CC | inconclusive: 35.5 µM [inhibitor, single point] |
| CCCCN(Cc1ccccc1)C(=O)C1CCN(Cc2sccc2C)CC1 | inconclusive: 23.1 µM [inhibitor, single point] |
| COc1ccc(-c2c(C)[nH]n3c(=O)c(Cc4ccccc4)c(C)nc23)cc1 | inconclusive: 15.8 µM [inhibitor, single point] |
| CCOc1ccc(N2CC(c3nc(-c4cc(OC)c(OC)c(OC)c4)no3)CC2=O)cc1 (stereo unspecified) | inactive |
| Cc1ccc(C)c(NC(=O)C2CCCN(S(=O)(=O)c3c(C)noc3/C=C/N(C)C)C2)c1 (stereo unspecified) | inconclusive: 31.6 µM [inhibitor, single point] |
| COc1ccc(CSc2nc3ncccc3[nH]2)cc1 | inconclusive: 2.24 µM [activator, single point] |
| Cc1ccc(-n2nnc3c(sc4nc(C)c(C)cc43)c2=O)cc1Cl | inactive |
| CC1CCN(c2c(NCC3CCC(C(=O)NCCc4ccc(Cl)cc4)CC3)c(=O)c2=O)CC1 (stereo unspecified) | inconclusive: 2.51 µM [inhibitor, full curve, poor fit] |
| CCOc1cc(CNCc2ccncc2)cc(Br)c1OCc1ccccc1F | inconclusive: 22.4 µM [inhibitor, single point] |

| SMILES | Potency |
| --- | --- |
| O=c1c(Cl)cc(Cl)nn1-c1ccccc1 | inconclusive: 8.91 µM [inhibitor, partial curve, poor fit] |
| O=C(c1ccco1)N1CCN(C(=O)c2ccc(Cn3cc(Br)cn3)o2)CC1 | inconclusive: 35.5 µM [inhibitor, single point] |
| O=C(O)C1CCCCC1C(=O)Nc1nc(-c2ccc(Cl)s2)cs1 (stereo unspecified) | inactive |
| O=C(N/N=C/c1ccccc1)c1sccc1OCc1ccc(F)cc1 | inactive |
| CCCc1cc(N2CCN(c3cc(Cl)ccc3C)CC2)n2cnnc2n1 | inactive |
| CCCN1C(=O)C(Cc2nc3ccccc3c(=O)n2CC)c2ccccc21 (stereo unspecified) | inactive |
| CCN(CC)S(=O)(=O)c1ccc(N2CCCC2)c(NS(=O)(=O)c2ccc(OC)cc2)c1 | inconclusive: 22.4 µM [inhibitor, partial curve, poor fit] |
| O=c1c2sc(-c3ccccc3)cc2nc2n1CCC2 | inconclusive: 7.08 µM [inhibitor, partial curve, poor fit] |
| O=Cc1cn(Cc2ccc(F)cc2)c2ccccc12 | inconclusive: 12.6 µM [inhibitor, partial curve, poor fit] |
| Cc1ccc(-n2nc3c(N4CCC(C(=O)N5CCCCC5)CC4)nnc(C)c3c2C)cc1 | inconclusive: 6.31 µM [inhibitor, single point] |
| CCn1c(SCc2ccccc2)nnc1-c1cccnc1 | inactive |
| COc1ccc(-c2nc3c4c(ncn3n2)-c2ccccc2CC42CCCC2)cc1 | inactive |
| O=C(Nc1ccccc1)Nc1ccccn1 | inactive |
| CCc1ccc2c(c1)cc(CN(C(=S)Nc1ccccc1Cl)C1CC1)c1nnnn12 | inconclusive: 4.61 µM [inhibitor, full curve] |
| O=C(C1CCC1)N1CCN(S(=O)(=O)c2ccc(Br)cc2Cl)CC1 | inconclusive: 15.8 µM [inhibitor, partial curve, poor fit] |
| N#Cc1ccccc1COC(=O)c1ccc(Br)o1 | inconclusive: 35.5 µM [inhibitor, single point] |
| CC(C)CNc1nc(Oc2ccc(=O)[nH]n2)nc(N2CCOCC2)n1 | inconclusive: 6.31 µM [inhibitor, single point] |
| CCOC(=O)C(C(=O)NCc1ccc(F)cc1)c1ncc(C(F)(F)F)cc1Cl (stereo unspecified) | inactive |
| Cc1cc(OCC(=O)NCC2(N3CCN(C)CC3)CCCCC2)cc(C)c1Cl | inactive |
| CC(=O)Nc1cccc(Nc2nc(-c3ccccc3F)nc3ccccc23)c1 | inactive |
| Cc1ccc(NC(=S)N2CCCCCC2)c(C)c1 | inconclusive: 2.82 µM [activator, partial curve, poor fit] |
| NC(=O)c1cccc(Nc2nccc(Nc3cccc(F)c3)n2)c1 | inconclusive: 2.5 µM [activator, full curve, poor fit] |
| Cc1ccc(S(=O)(=O)N2CCC(=O)N(C(COCc3ccccc3)C(C)C)CC2)cc1 (stereo unspecified) | inconclusive: 25.9 µM [inhibitor, single point] |

2 of these compounds, reformatted.
SMILES	Potency
Cc1cc(=O)[nH]c(N2CCN(c3ccc(Cl)cc3)CC2)n1	inactive
O=C(C1CCC1)N1CCN(S(=O)(=O)c2ccc(Br)cc2Cl)CC1	inconclusive: 15.8 µM [inhibitor, partial curve, poor fit]
